Reference: patent US20130059311A1, “METHOD FOR THE IDENTIFICATION OF MEMORY MODULATING COMPOUNDS BY ASSESSING KIBRA EXPRESSION” (SYGNIS BIOSCIENCE GMBH & CO KG, priority 2010, published 2013)
Entries after “also recorded” stand apart in the source; their conditions may differ. For at least one compound, name, drawing or mass did not settle the structure.

Assays:
KIBRA promoter = assay: Luciferase reporter assay with KIBRA promoter construct in SHSY5Y cells; format: cell-based, human; details: 1 μM, 48 h, vs untreated cells
KIBRA mRNA = assay: Quantitative PCR of native KIBRA mRNA in rat neuronal stem cells; format: cell-based; details: 48 h stimulation, vs untreated cells

O=C(/C=C/C=C/c1ccc2c(c1)OCO2)N1CCCCC1 [piperine]
luciferase signal (KIBRA promoter construct) (KIBRA promoter): induced the construct significantly | luciferase signal (KIBRA promoter construct) (KIBRA promoter; listed as Piperine): able to induce an elevation of the luciferase signal | amount of native KIBRA mRNA (quantitative PCR) (KIBRA mRNA): elevated

CC1=C(/C=C/C(C)=C/C=C/C(C)=C/C(=O)O)C(C)(C)CCC1 [retinoic acid]
luciferase signal (KIBRA promoter construct) (KIBRA promoter): not retinoic acid (white box), is able to induce an elevation of the luciferase signal; also recorded: failed to induce the KIBRA promoter construct | amount of native KIBRA mRNA (quantitative PCR) (KIBRA mRNA): not by retinoic acid
